{
  "source": "patent US12077555B2",
  "about": "“STAT degraders and uses thereof” (Kymera Therapeutics, Inc., priority 2019, dated 2024)",
  "key": {"[1]": {"system": "KARPAS-299 cells", "test": "CellTiter-Glo cell viability, KARPAS-299", "settings": "for CTG (% Max inh), Day 4 / IC50: KARPAS-299, ALCL (ALK+), Day 4; for IC50: read-out: CTG, IC50 μM, Day 4"}, "[2]": {"system": "SOCS3", "test": "STAT3 RT-qPCR assay, SOCS3 mRNA", "settings": "SU-DHL-1 cells; for STAT3-dependent gene expression of SOCS3: FIG. 5A, FIG. 15", "experimental": "SU-DHL-1 cells were treated with compounds for a designed time. 0.3-0.6 mL lysis buffer with 2-mercaptoethanol was added to the collected cell pellet or monolayer cells. The cells were vortexed until the cell was dispersed and the cells appear lysed. One volume of 70% ethanol was added to each volume of cell homogenate and vortex. 700 μL of the sample was transferred to the spin cartridge and centrifuged at 12000 g for 15s at RT. The flow-through was discarded and the process repeated until the entire samples had been processed. 700 ul wash buffer I was added to the spin cartridge and centrifuged at 12000 g for 15s at RT and the flow-through was discarded. 500 μL wash buffer II with ethanol was added to the spin cartridge and centrifuged at 12000 g for 15s at RT and the flow-through was discarded. The process was then repeated. The spin cartridge was centrifuged at 12000 g for 2 min to dry the membrane with bound RNA. 30-100 μL RNase-free water was added to the center of the spin cartridge and incubated for 1 min at RT. The spin cartridge was centrifuged at 12000 g for 2 min to elute the RNA from the membrane into the recovery tube and the purified RNA was stored. The concentration of the RNA was quantitated using Nano-Drop. cDNA was formed from the RNA by reverse transcription and qPCR of the cDNA with primer of the gene of interest and housekeeping gene was preformed using the volumes below: […]"}, "[3]": {"target": "T1, STAT3 (Homo sapiens, UniProt P40763)", "test": "STAT3 MSD assay", "assay_type": "cell-based", "experimental": "100 nl of compounds were added into the intermediate plate with Echo (Labcyte 550) from source plate containing a 3-fold serial dilution from top concentration of 1 mM. Cells were seeded into 96-well plates (4×10^4 cells/well/100 ul media), mixed well, and incubated for 24 hours. The media was aspirated from the cultures and 60 μL pre-chilled PIPA lysis buffer (Boston BioProducts BP-115D) with protease/phosphatase inhibitor (Roche 05892791001/Roche 04906837001) was added into the well to lyze the cells for 20 minutes at 4° C. The MSD plate (L15XA) was coated with 2 ug/ml capture antibody (ab119352) in PBS and incubated at 4° C. overnight. The next day, the plate was washed three times with TBST (CST #99975), 150 μL/well. MSD plates were blocked with 150 μL blocking buffer per well and shaken for 1 hr at RT and 600 rpm. The blocking buffer was 3% Blocker A (MSD, R93BA-4) in TBST. The MSD plate was washed three times with 150 μL/well of TBST and 70 μL cell lysate was added into the well and shaken for 1 hour at RT and 600 rpm. The MSD plate was washed three times with 150 μL/well of TBST and added 25 μL/well of detection antibody (ab68153) to a final concentration of 1 μg/ml diluted in 1% blocking buffer and shaken for 1 hour at RT and 600 rpm. MSD plate was washed three times with 150 μL/well of TBST and added 25 μL/well of SULFO-TAG anti-rabbit antibody (MSD, R32AB-1) to a final concentration of 1 μg/mL diluted in 1% blocking buffer and shaken for 1 hour at RT and 600 rpm. The MSD plate washed three times with 150 μL/well of TBST and added 150 μL/well of 2×MSD reading buffer diluted from 4× (MSD, R92TC-2) with water. Lastly the MSD instrument was read."}, "[4]": {"system": "SU-DHL-1 cells", "test": "CellTiter-Glo cell viability, SU-DHL-1", "settings": "for cell proliferation: SU-DHL-1, FIG. 5B, FIG. 16", "experimental": "(§1) Compound-mediated viability effect on MOLM-16 and SU-HDL-1 cells was quantitatively determined using the CellTiter-Glo® Luminescent Cell Viability Assay kit from Promega (Catalog number G7572) following manufacturer's recommended procedures.\n(§2) Day 0: 60 nL of compounds/DMSO were stamped to the cell plate as on the recommended platemap. Compound precipitation was observed. Cells were centrifuged at 800 rpm for 5 min, suspended with culture medium, and counted with Countess (Invitrogen). The cell density was adjusted to the recommend concentration. 30 μL of cell solution (2000 cells/well) was added to the assay plate according to the platemap. 30 μL of media was added to column 2 and column 23 as on the platemap. The final concentration of the compounds except for the reference compound Paclitaxel was from 10 μM, 3-fold dilution and 11 dose (Paclitaxel started at 500 nM). The final DMSO concentration was 0.2%. The assay plate was incubated at 37° C., 5% CO2 for 4 days.\n(§3) Day 4: The assay plate was equilibrated to RT for ˜10 minutes. Compound precipitation was observed (96h). To determine cell viability, 30 μL of CellTiter Glo reagent was added to each well and the assay plate was centrifuged at 1000 rpm for 30 second, incubated at room temperature for 10 min, and analyzed by detecting the luminescence using a multimode plate reader (EnVision 2105, PerkinElmer). The data was then analyzed by software Prism 7.0 from GraphPad and the dose response curves were fit using a three-parameter logistic equation to calculate EC50."}, "[5]": {"system": "activated Caspase 3", "test": "activated Caspase 3 at 48 hours (FIG. 7C)", "settings": "leads to cell death", "experimental": "FIG. 7 depicts the decrease in STAT3 observed at 24 hours treatment with I-103 (A), the time-dependent inhibition of proliferation with I-103 (B), the increase in activated Caspase 3 at 48 hours that leads to cell death with I-103 treatment (C), and increase in subG1 cells observed with I-103 treatment (D)."}, "[6]": {"system": "SR-786 cells", "test": "CellTiter-Glo cell viability, SR-786", "settings": "for CTG (% Max inh), Day 4: SR-786, ALCL (ALK+)", "experimental": "as §1, §2, §3"}, "[7]": {"target": "T1, STAT3", "test": "STAT3 degradation (DC50) in multiple ALK+ALCL cell lines", "settings": "dose response curves, FIG. 14; tested form: diammonium", "from_the_text": "FIG. 14 depicts dose response curves and DC50 results showing I-174 and I-94 mediated degradation in multiple ALK+ALCL cell lines."}, "[8]": {"system": "KI-JK cells", "test": "CellTiter-Glo cell viability, KI-JK"}},
  "note": "Where two headings read alike, the source gives them in different places. Structures were worked out from names or drawings and are uncertain.",
  "data": [
    {"smiles": "Cn1c(=O)n(C2CCC(=O)NC2=O)c2ccc(CCCCCCC(=O)N3CC[C@H]4CC[C@@H](C(=O)N[C@@H](CCC(N)=O)C(=O)NC(c5ccccc5)c5ccccc5)N4C(=O)[C@@H](NC(=O)c4cc5cc(C(=O)P(=O)(O)O)ccc5[nH]4)C3)cc21", "note": "(stereo partly shown)", "values": [
      {"measurement": "CTG (% Max inh), Day 4", "setting": "[1]", "value": "(50-55) %"},
      {"measurement": "IC50", "setting": "[1]", "value": 0.14, "unit": "µM"},
      {"measurement": "STAT3-dependent gene expression of SOCS3", "setting": "[2]", "value": "downregulates"},
      {"measurement": "STAT3 levels, MSD DC90 (μM) at 24 hr", "setting": "[3]; SU-DHL-1, 24 hr", "value": 0.15, "unit": "µM"},
      {"measurement": "DC50", "setting": "[3]; read-out: MSD DC50, MOLM-16 cells", "value": 4, "unit": "nM"},
      {"measurement": "DC50", "setting": "[3]; read-out: MSD DC50, SU-HDL-1 cells", "value": 28, "unit": "nM"},
      {"measurement": "cell proliferation", "setting": "[4]", "value": "inhibits"},
      {"measurement": "IC50", "setting": "[4]; read-out: Growth inhibition, CTG IC50 (μM) at 96 hr, SU-DHL-1, 96 hr", "value": 0.167, "unit": "µM"},
      {"measurement": "activated Caspase 3", "setting": "[5]", "value": "increase in activated Caspase 3"},
      {"measurement": "CTG (% Max inh), Day 4", "setting": "[6]", "value": "(75) %"},
      {"measurement": "IC50", "setting": "[6]; read-out: CTG, IC50 μM, Day 4, SR-786, ALCL (ALK+)", "value": 3.8, "unit": "µM"}
    ]},
    {"smiles": "Cc1ncsc1-c1ccc([C@H](C)NC(=O)[C@@H]2C[C@@H](O)CN2C(=O)[C@@H](NC(=O)CCCCc2ccc(CO[C@H](C)[C@H](CCC(N)=O)NC(=O)[C@@H]3Cc4cccc5c4N3C(=O)[C@@H](NC(=O)c3cc4cc(C(=O)P(=O)(O)O)ccc4[nH]3)CC5)cc2)C(C)(C)C)cc1", "note": "[Compound I-227]", "values": [
      {"measurement": "CTG (% Max inh), Day 4", "setting": "[1]; tested form: diammonium", "value": "(85) %"},
      {"measurement": "cell proliferation", "setting": "[1]; KARPAS-299, FIG. 16, tested form: diammonium", "value": "inhibit"},
      {"measurement": "IC50", "setting": "[1]; tested form: diammonium", "value": 0.047, "unit": "µM"},
      {"measurement": "STAT3-dependent gene expression of SOCS3", "setting": "[2]; tested form: diammonium", "value": "downregulates"},
      {"measurement": "IC50", "setting": "[2]; read-out: mRNA (RT-qPCR) IC50 (μM), 24 hr SOCS3, 24 hr, tested form: diammonium", "value": 0.066, "unit": "µM"},
      {"measurement": "degradation in multiple ALK+ALCL cell lines", "setting": "[7]", "value": "mediated degradation"},
      {"measurement": "CTG (% Max inh), Day 4", "setting": "[8]; ALCL (ALK+), Day 4, tested form: diammonium", "value": "(110) %"},
      {"measurement": "cell proliferation", "setting": "[8]; FIG. 16, tested form: diammonium", "value": "inhibit"},
      {"measurement": "IC50", "setting": "[8]; read-out: CTG, IC50 μM, Day 4, ALCL (ALK+), Day 4, tested form: diammonium", "value": 0.102, "unit": "µM"},
      {"measurement": "STAT3 MSD % Amax", "setting": "[3]; DEL, 24 hr, tested form: diammonium", "value": 97, "unit": "%"},
      {"measurement": "STAT3 MSD % Amax", "setting": "[3]; KARPAS-299, 24 hr, tested form: diammonium", "value": 99, "unit": "%"},
      {"measurement": "STAT3 MSD % Amax", "setting": "[3]; KI-JK, 24 hr, tested form: diammonium", "value": 95, "unit": "%"},
      {"measurement": "STAT3 MSD % Amax", "setting": "[3]; SR-786, 24 hr, tested form: diammonium", "value": 99, "unit": "%"},
      {"measurement": "STAT3 MSD % Amax", "setting": "[3]; SU-DHL-1, 24 hr, tested form: diammonium", "value": "> 95", "unit": "%"},
      {"measurement": "STAT3 MSD % Amax", "setting": "[3]; SUP-M2, 24 hr, tested form: diammonium", "value": 95, "unit": "%"},
      {"measurement": "DC50", "setting": "[3]; read-out: STAT3 MSD DC50, DEL, 24 hr, tested form: diammonium", "value": 28, "unit": "nM"},
      {"measurement": "DC50", "setting": "[3]; read-out: STAT3 MSD DC50, KARPAS-299, 24 hr, tested form: diammonium", "value": 13, "unit": "nM"},
      {"measurement": "DC50", "setting": "[3]; read-out: STAT3 MSD DC50, KI-JK, 24 hr, tested form: diammonium", "value": 39, "unit": "nM"},
      {"measurement": "DC50", "setting": "[3]; read-out: STAT3 MSD DC50, SR-786, 24 hr, tested form: diammonium", "value": 9, "unit": "nM"},
      {"measurement": "DC50", "setting": "[3]; read-out: STAT3 MSD DC50, SU-DHL-1, 24 hr, tested form: diammonium", "value": 15, "unit": "nM"},
      {"measurement": "DC50", "setting": "[3]; read-out: STAT3 MSD DC50, SUP-M2, 24 hr, tested form: diammonium", "value": 62, "unit": "nM"},
      {"measurement": "CTG (% Max inh), Day 4", "setting": "[4]; SU-DHL-1, ALCL (ALK+), Day 4, tested form: diammonium", "value": "(89) %"},
      {"measurement": "cell proliferation", "setting": "[4]; tested form: diammonium", "value": "inhibit"},
      {"measurement": "IC50", "setting": "[4]; read-out: CTG, IC50 μM, Day 4, SU-DHL-1, ALCL (ALK+), Day 4, tested form: diammonium", "value": 0.321, "unit": "µM"},
      {"measurement": "CTG (% Max inh), Day 4", "setting": "[6]; tested form: diammonium", "value": "(85) %"},
      {"measurement": "IC50", "setting": "[6]; read-out: CTG, IC50 μM, Day 4, SR-786, ALCL (ALK+), tested form: diammonium", "value": 0.25, "unit": "µM"}
    ]}
  ]
}
